Measured data: PubChem BioAssay AID652243 (Drosophila RNAi Screening Center, 2013)

Test: 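Fly regulators of androgen-dependent reporter output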 (primary screen)
Cell system: Drosophila S2R+ cells
Reagents: long dsRNA against Drosophila genes
Duration: 72 h (48 h, then 24 h hormone)
Challenge: synthetic androgen R1881 at 10 nM for 24 h
Detection: 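Per-well raw luminescence of the androgen-driven firefly reporter and of the Renilla control, two replicates each, without normalisation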
Direction: firefly reporter light: higher = more light from androgen-responsive reporter; Renilla control light: higher = more constitutive control signal (cell number, transfection)
Hit rule: 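Across duplicate plates, a knock-down whose log firefly/Renilla ratio shifted a set fold down or up from the GFP/LacZ control mean was a hit; the downward cut appears as both 1.5 and 3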
Meaning of the calls: active = hit: reporter lowered or raised; inactive = no hit
The screen tested about 24,000 reagents; shown is an unselected part of those that have a named target and a result. Over the whole deposit, 246 (1%) got an active call. 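Plates not normalised; calls are printed but the firefly/Renilla ratio behind them is not deposited; fold cut for lowering reported inconsistently.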 The raw values are shown without normalisation. The numbers tell different reagents against one gene apart. Names joined by + are all predicted targets of the reagent. Not stated in the record: the amount of reagent.

CG3088 showed firefly reporter light, replicate 1 = 8.03e5; firefly reporter light, replicate 2 = 1.06e6; Renilla control light, replicate 1 = 1.25e6; Renilla control light, replicate 2 = 1.26e6; inactive.
After knock-down of CG13029, the record shows firefly reporter light, replicate 1 = 3.48e5; firefly reporter light, replicate 2 = 3.02e5; Renilla control light, replicate 1 = 3.51e6; Renilla control light, replicate 2 = 2.67e6; inactive.
Depletion of CG6788 + CR32496 came out at: firefly reporter light, replicate 1 = 9.34e5; firefly reporter light, replicate 2 = 7.51e5; Renilla control light, replicate 1 = 2.69e6; Renilla control light, replicate 2 = 1.77e6; inactive.
For Dhc16F the deposit lists firefly reporter light, replicate 1 = 5.53e5; firefly reporter light, replicate 2 = 7.55e5; Renilla control light, replicate 1 = 4.51e6; Renilla control light, replicate 2 = 4.49e6; inactive.
Against CG32820 + CG17450 + CG32819 #1, the entry reads firefly reporter light, replicate 1 = 5.11e5; firefly reporter light, replicate 2 = 4.56e5; Renilla control light, replicate 1 = 2.51e6; Renilla control light, replicate 2 = 3.38e6; inactive.
Against CG32820 + CG17450 + CG32819 #2, the values are firefly reporter light, replicate 1 = 5.31e5; firefly reporter light, replicate 2 = 9.49e5; Renilla control light, replicate 1 = 9.38e5; Renilla control light, replicate 2 = 1.67e6; inactive.
With knock-down of CG32820 + CG17450 + CG32819 #3, the record shows firefly reporter light, replicate 1 = 3.91e5; firefly reporter light, replicate 2 = 2.75e5; Renilla control light, replicate 1 = 3.43e5; Renilla control light, replicate 2 = 5.61e5; inactive.
ppk3 #1 showed firefly reporter light, replicate 1 = 3.49e5; firefly reporter light, replicate 2 = 3.92e5; Renilla control light, replicate 1 = 1.80e6; Renilla control light, replicate 2 = 2.35e6; inactive.
ppk3 #2 gave firefly reporter light, replicate 1 = 3.27e5; firefly reporter light, replicate 2 = 3.40e5; Renilla control light, replicate 1 = 8.16e5; Renilla control light, replicate 2 = 6.65e5; inactive.
After knock-down of firl, the record shows firefly reporter light, replicate 1 = 3.38e5; firefly reporter light, replicate 2 = 2.67e5; Renilla control light, replicate 1 = 1.57e6; Renilla control light, replicate 2 = 1.78e6; inactive.
Depletion of Gr58a resulted in: firefly reporter light, replicate 1 = 1.51e5; firefly reporter light, replicate 2 = 2.32e5; Renilla control light, replicate 1 = 3.89e5; Renilla control light, replicate 2 = 4.28e5; inactive.
CG15073 #1 gave firefly reporter light, replicate 1 = 1.27e5; firefly reporter light, replicate 2 = 1.41e5; Renilla control light, replicate 1 = 2.24e6; Renilla control light, replicate 2 = 1.74e6; inactive.
After knock-down of CG15073 #2, the screen gave firefly reporter light, replicate 1 = 4.57e5; firefly reporter light, replicate 2 = 3.35e5; Renilla control light, replicate 1 = 6.27e5; Renilla control light, replicate 2 = 3.80e5; inactive.
For Cad89D, the entry reads firefly reporter light, replicate 1 = 1.32e5; firefly reporter light, replicate 2 = 92719; Renilla control light, replicate 1 = 2.38e6; Renilla control light, replicate 2 = 2.18e6; inactive.
For CG43777 + CG43776 + CG43775, the values are firefly reporter light, replicate 1 = 2.35e5; firefly reporter light, replicate 2 = 2.41e5; Renilla control light, replicate 1 = 1.79e6; Renilla control light, replicate 2 = 1.71e6; inactive.
After knock-down of Grp170 #1, the screen gave firefly reporter light, replicate 1 = 86765; firefly reporter light, replicate 2 = 77731; Renilla control light, replicate 1 = 9.35e5; Renilla control light, replicate 2 = 7.28e5; inactive.
Against Grp170 #2, the values are firefly reporter light, replicate 1 = 4.81e5; firefly reporter light, replicate 2 = 4.70e5; Renilla control light, replicate 1 = 8.19e5; Renilla control light, replicate 2 = 7.72e5; inactive.
For CG5446, the entry reads firefly reporter light, replicate 1 = 2.45e5; firefly reporter light, replicate 2 = 3.43e5; Renilla control light, replicate 1 = 1.34e6; Renilla control light, replicate 2 = 1.27e6; inactive.
Knock-down of tld came out at: firefly reporter light, replicate 1 = 2.59e5; firefly reporter light, replicate 2 = 2.34e5; Renilla control light, replicate 1 = 2.22e6; Renilla control light, replicate 2 = 2.51e6; inactive.
Knock-down of CG12861 #1 came out at: firefly reporter light, replicate 1 = 1.41e5; firefly reporter light, replicate 2 = 1.97e5; Renilla control light, replicate 1 = 3.22e6; Renilla control light, replicate 2 = 3.22e6; inactive.
Knock-down of CG12861 #2 came out at: firefly reporter light, replicate 1 = 7.13e5; firefly reporter light, replicate 2 = 6.34e5; Renilla control light, replicate 1 = 1.25e6; Renilla control light, replicate 2 = 1.33e6; inactive.
After knock-down of CG12861 #3, the screen gave firefly reporter light, replicate 1 = 9.69e5; firefly reporter light, replicate 2 = 9.95e5; Renilla control light, replicate 1 = 1.06e6; Renilla control light, replicate 2 = 9.87e5; inactive.
CG7379 #1 showed firefly reporter light, replicate 1 = 6.06e5; firefly reporter light, replicate 2 = 9.44e5; Renilla control light, replicate 1 = 1.64e6; Renilla control light, replicate 2 = 2.24e6; inactive.
Against CG7379 #2 the deposit lists firefly reporter light, replicate 1 = 6.24e5; firefly reporter light, replicate 2 = 7.72e5; Renilla control light, replicate 1 = 6.30e5; Renilla control light, replicate 2 = 8.54e5; inactive.
CG33062 #1 showed firefly reporter light, replicate 1 = 3.44e5; firefly reporter light, replicate 2 = 3.82e5; Renilla control light, replicate 1 = 1.40e6; Renilla control light, replicate 2 = 1.01e6; inactive.
For CG33062 #2 the deposit lists firefly reporter light, replicate 1 = 2.49e5; firefly reporter light, replicate 2 = 2.22e5; Renilla control light, replicate 1 = 6.25e5; Renilla control light, replicate 2 = 8.13e5; inactive.
Against COX8 #1 the deposit lists firefly reporter light, replicate 1 = 2.97e5; firefly reporter light, replicate 2 = 2.37e5; Renilla control light, replicate 1 = 2.77e6; Renilla control light, replicate 2 = 1.40e6; inactive.
COX8 #2 showed firefly reporter light, replicate 1 = 3.67e5; firefly reporter light, replicate 2 = 4.51e5; Renilla control light, replicate 1 = 1.14e6; Renilla control light, replicate 2 = 1.18e6; inactive.
